The values below come from patent US20160115235A1.

Chains of the proteins cited; added tags and fusions are not shown. Lines headed by an entry give the natural chain unless they say otherwise; changes in a name come on top.
UniProt P32302: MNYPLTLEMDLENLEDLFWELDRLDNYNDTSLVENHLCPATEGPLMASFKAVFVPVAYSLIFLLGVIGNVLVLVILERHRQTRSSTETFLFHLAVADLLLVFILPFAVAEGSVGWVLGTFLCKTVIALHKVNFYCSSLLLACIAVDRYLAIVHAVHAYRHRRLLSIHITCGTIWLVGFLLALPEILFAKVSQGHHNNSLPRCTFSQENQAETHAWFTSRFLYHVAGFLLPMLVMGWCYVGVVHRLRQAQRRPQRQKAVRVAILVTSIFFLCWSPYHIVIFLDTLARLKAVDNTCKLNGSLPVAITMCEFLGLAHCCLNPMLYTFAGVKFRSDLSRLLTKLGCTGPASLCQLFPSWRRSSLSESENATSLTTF

For one assay, the target named is human CXCR5 (human) (UniProt P32302). Briefly: FACS on CXCR5 expressing cells.
Assay [1] concerns the target cynomolgus monkey (Macaca fascicularis) CXCR5 (cynomolgus monkey (Macaca fascicularis)). Briefly: FACS on CXCR5 expressing cells.

These are yes or no findings as the source states them, for the method shown. Some binding calls cover weakened binding; strength is not graded here.

B1: mAb 80A10 (antibody, V domains shown)
VH: EVQLLESGGGLVQPGGSLRLSCAASGFTFSMYVMKWVRQAPGKGLEWVSGIRSSGGDTSYADSVKGRFTISRDNSKNTLYLQMNSLRAEDTAVYYCARQSRYCNGGSCYSRAFDIWGQGTMVTVSS
VL: QPPSASGTPGQRVTISCFGSNSNIGSTYAYWYQQVPGTAPKLLIYRNNQRPSGVPDRFSGSKSGTSASLAISGLRSEDEADYYCAAWDVNLSGHWVFGGGTKLTVLG
On to B1, for which the binding result with human CXCR5 (human) is “binds”.

B2: mAb 42F03 (antibody, human IgG1, V domains shown)
VH: EVQLLESGGGLVQPGGSLRLSCAASGFTFSWYPMTWVRQAPGKGLEWVSYIRSSGGFTKYADSVKGRFTISRDNSKNTLYLQMNSLRAEDTAVYYCARGLYRWGQGTLVTVSS
VL: IQMTQSPGTLSLSPGERATLSCRASQSVSNNYLAWYQQKPGQAPRLLISGASRRATDIADRFSGSGSGTDFTLTISRLEPEDFAVYYCQQYDSFPLTFGGGTKVEIK
On to B2, for which the binding entry (in the assay with human CXCR5 (human); in assay [1]) was “binds” in each case.
